Where a sequence shows no end group, the ends are not given.
Legend:
[1] = general procedure: Fmoc solid-phase peptide synthesis; SEA resin (0.175 mmol/g); Novasyn TGR; PAL-ChemMatrix; HBTU/DIEA; conditions: for step yield: late stage modification step
[2] = general procedure: Fmoc solid-phase peptide synthesis; SEA resin; HBTU/DIEA; conditions: whole synthesis, scale 0.25 mmol
[3] = general procedure: Fmoc solid-phase peptide synthesis; Novasyn TGR; HBTU/DIEA; conditions: whole synthesis, scale 0.5 mmol
[4] = whole synthesis, scale of the general procedure 0.1 mmol, 0.25 mmol, 0.5 mmol
[5] = whole synthesis, scale 0.25 mmol

Substance: H-ILKEPVHGA-N(CH2CH2SH)2
- crude HPLC purity [1, 4]: 83%
- final HPLC purity [1, 4]: 97%
- isolated yield [1, 4]: 31%

Substance: H-ILKEPVHGA-S(CH2)2COOH
- step yield [1]: 47.4%

Substance: H-ILKEPVHGG-N(CH2CH2SH)2
- crude HPLC purity [1, 4]: 91%
- final HPLC purity [1, 4]: 96%
- isolated yield ([1]; whole synthesis, overall, scale of the general procedure 0.1 mmol, 0.25 mmol, 0.5 mmol): 35%

Substance: H-ILKEPVHGV-N(CH2CH2SH)2
- crude HPLC purity [1, 4]: 80%
- final HPLC purity [1, 4]: 99%
- isolated yield [1, 4]: 27%

Substance: H-ILKEPVHGY-N(CH2CH2SH)2
- crude HPLC purity [1, 4]: 88%

Substance: H—C(StBu)HHLEPGG-SEAoff
- step yield [1]: 33%
- crude mass [1, 5]: 132.6 mg
- crude yield [1, 5]: 38%

Substance: QPWSSMIPHEHSFLPSSYRGKDLQEN
- crude yield [1, 4]: 35.6%
- crude mass [2]: 366.14 mg

Substance: RNPRGEEGGPWCFTSNPEVRYEVCDIPQCSE
- isolated mass [3]: 272 mg
- isolated yield [3]: 13%

— patent US10072041 (dated 2018)
